Measured values from paper PMC9537541, “Synthesis and anticancer activity of new benzensulfonamides incorporating s-triazines as cyclic linkers for inhibition of carbonic anhydrase IX” (Scientific Reports, 2022).

Tested on: Breast cancer (MDA-MB-468)
Experiment: anti-proliferative activity under hypoxic condition (MTT), MDA-MB-468
Assay type: cell-based
Conditions: Homo sapiens, hypoxic conditions (1%O2, 5% CO2 and 94% N2), mean ± S.D. of three experiments
Description: All cells were incubated in hypoxic atmosphere (1% O2, 5% CO2, and 94%N2) and maintained at 37 °C. All procedures to determine compounds cytotoxicity were accomplished using MTT assay as reported,[59],[60].

Question: Which IC50 does the source give for CN[C@@H]1C[C@H]2O[C@@](C)([C@@H]1OC)n1c3ccccc3c3c4c(c5c6ccccc6n2c5c31)C(=O)NC4 [Staurosporine, reference compound] here?
Answer: Its IC50 is 6.07 ± 0.03 µM.
